{"source": "the supplement of paper PMC10338343", "note": "± gives the standard deviation. Only a part is listed here, and it is no random draw. Many entries were measured with a wide error.", "data": [{"system": "MIWI (PIWIL1) piRISC loaded with piRNA #2 (30 nt)", "assay": "pre-steady-state target cleavage rate (min^-1); MIWI and MILI are mouse PIWI proteins and EfPiwi is from a freshwater sponge; tags in brackets are library labels; higher = faster piRNA-guided slicing of the target", "settings": "guide: piRNA #2 5'p-UUAGGUAACCCAGUAGAUCCAGAGGAAUUC; auxiliary factor: 500 nM mouse GTSF1", "in_short": "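The pre-steady-state cleavage rate was obtained by Cleave-'n-Seq with a burst-and-steady-state fit. A transcribed, DNA-blocked target RNA library (0.1 nM) was mixed with 1 nM active affinity-purified piRISC carrying one synthetic guide, with or without 500 nM GTSF1 partner protein, in HEPES–potassium acetate buffer at 33 °C for 0–8 or 0–960 min. Uncleaved targets were sequenced and normalised to depth and to weakly complementary targets, with three trials pooled and k3 capped at 0.0001 min^-1.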", "values": [{"sequence": "CUUAAGGAGACCUAGAUCAUGGGUUACCUAA", "pre-steady-state target cleavage rate": "0.000772 ± 0.011"}, {"sequence": "CUUAAGGACUGGAUCUACUCGGAUACCUAA", "pre-steady-state target cleavage rate": "0.00159 ± 0.018"}, {"sequence": "CUUAAGGAGUGGAUGUACUCGGUUACCUAA", "pre-steady-state target cleavage rate": "0.00249 ± 0.012"}, {"sequence": "CUUAAGGUCUGGAUCAACUGGGUUACGUAA", "pre-steady-state target cleavage rate": "0.293 ± 0.039"}, {"sequence": "GAAUUCCUCUGGAAGUACUGGGUUACCUAA", "pre-steady-state target cleavage rate": "0.511 ± 0.047"}, {"sequence": "CAAUUCCUCUGGAUCUACUGGAGUUACCUAA", "pre-steady-state target cleavage rate": "0.00382 ± 0.0035"}, {"sequence": "CUUAACCUCUGGAUCUACUGAGUUACCUAA", "pre-steady-state target cleavage rate": "0.646 ± 0.047"}, {"sequence": "CUUAAGGAGACCAUCGACUGGGUUACCUAA", "pre-steady-state target cleavage rate": "0.000723 ± 0.0094"}, {"sequence": "CUUUUCCUCUGGAUCUACUGCGUUAGCUAA", "pre-steady-state target cleavage rate": "0.142 ± 0.048"}, {"sequence": "CAAUUCCUCUGGAUCUACUGGUGUUACCUAA", "pre-steady-state target cleavage rate": "0.0066 ± 0.0037"}, {"sequence": "CUAUUCCUCUGGAUCUACUGGGUUACCUAAA", "pre-steady-state target cleavage rate": "0.333 ± 0.047"}, {"sequence": "CUUAAGGAGACCUACUACUGCGUUAGCUAA", "pre-steady-state target cleavage rate": "0.000437 ± 0.015"}, {"sequence": "CUUAAGGAGACCUAGUACUGGGUUGCCUAA", "pre-steady-state target cleavage rate": "0.00116 ± 0.01"}, {"sequence": "CUUAAGGAGACCUUCUAGUGGGUUAGCUAA", "pre-steady-state target cleavage rate": "0.000574 ± 0.015"}, {"sequence": "CUUAAGGAGACCAACUACUGGGUUACCAAA", "pre-steady-state target cleavage rate": "0.00134 ± 0.0049"}, {"sequence": "CUUAAGGAGACCUACUACUCCGUUACCUAA", "pre-steady-state target cleavage rate": "0.000736 ± 0.0048"}, {"sequence": "CUUAAGGAGACCAUCUUCUGGGUUACCAAA", "pre-steady-state target cleavage rate": "0.00215 ± 0.0038"}, {"sequence": "CUUAAGGAGAGGAUCAACUGGGUAACCUAA", "pre-steady-state target cleavage rate": "0.00011 ± 0.06"}, {"sequence": "CUUAAGGAGACCUAGAUCCGGGUUACCUAA", "pre-steady-state target cleavage rate": "0.0011 ± 0.012"}, {"sequence": "CUUAUCCUCUGGAUCUACUGGGUUACAUAA", "pre-steady-state target cleavage rate": "0.742 ± 0.048"}, {"sequence": "CUAUUCCUCUGGAUUCUACUGGGUUACCUAA", "pre-steady-state target cleavage rate": "0.346 ± 0.047"}, {"sequence": "CUUAAGGACUGGAUCUACUGGGAUACCAAA", "pre-steady-state target cleavage rate": "0.00112 ± 0.021"}, {"sequence": "CUUAAGGAGAGGAUCUACUGCCUUACCUAA", "pre-steady-state target cleavage rate": "0.000731 ± 0.011"}, {"sequence": "CUUAAGGAGUGGAUCUACUGGGAUACCAAA", "pre-steady-state target cleavage rate": "0.000518 ± 0.014"}, {"sequence": "CUUAAGGAGACGAUCUACUGGGUUCCCUAA", "pre-steady-state target cleavage rate": "0.0012 ± 0.0041"}, {"sequence": "CUUAAGGACUGGAACUACUCGGUUACCUAA", "pre-steady-state target cleavage rate": "0.0049 ± 0.011"}, {"sequence": "CUUAAGGAGAGGAUCUACUGGGUUAUCUAA", "pre-steady-state target cleavage rate": "0.00226 ± 0.007"}, {"sequence": "CUUAAGGAGACGAUCUUGUGGGUUACCUAA", "pre-steady-state target cleavage rate": "0.000449 ± 0.013"}, {"sequence": "CUUAAGGAGACGAUCUACUGGGUUACCUUA", "pre-steady-state target cleavage rate": "0.0022 ± 0.0035"}, {"sequence": "CUUAAGGAGACCUACUACUGGGUUACCAUA", "pre-steady-state target cleavage rate": "0.00137 ± 0.0047"}, {"sequence": "CUUAAGGAGACCUAGAUGACCGUUACGUAA", "pre-steady-state target cleavage rate": "0.000616 ± 0.011"}, {"sequence": "CAAUUCCUCUGGAUCUACUCGGGUUACCUAA", "pre-steady-state target cleavage rate": "0.00331 ± 0.0048"}, {"sequence": "CUUAAGGAGUGUGAUCUACUGGGUUACCUAA", "pre-steady-state target cleavage rate": "0.00553 ± 0.0085"}, {"sequence": "CUUAAGGAGACCUAGUACUGGGUACCUAA", "pre-steady-state target cleavage rate": "0.000585 ± 0.0079"}, {"sequence": "CUUAAGGAGACCUACUACUGGGUUACCUAA [g2:g16:cont:t1A]", "pre-steady-state target cleavage rate": "0.00332 ± 0.0035"}, {"sequence": "CUUAAGGACUGGAUCUUCUGGGUUACCAAA", "pre-steady-state target cleavage rate": "0.0039 ± 0.013"}, {"sequence": "CUUAAGGAGACCUAGAUCUAGGGUUACCUAA", "pre-steady-state target cleavage rate": "0.00116 ± 0.008"}, {"sequence": "CUUAAGGAGACCAUCAACUGGGAUACCUAA", "pre-steady-state target cleavage rate": "0.000202 ± 0.035"}, {"sequence": "CUUAAGGAGACCUACUACUGGCUUACCUAA", "pre-steady-state target cleavage rate": "0.00198 ± 0.0034"}, {"sequence": "CUUAAGGAGACCUACUACUGGCUUACCAAA", "pre-steady-state target cleavage rate": "0.00152 ± 0.0036"}, {"sequence": "CUUAAGGAGACCUACAACUGGGUUAGCUAA", "pre-steady-state target cleavage rate": "0.000227 ± 0.027"}, {"sequence": "CUUAAGGAGACCAUCUACUCGCUUACCUAA", "pre-steady-state target cleavage rate": "0.000431 ± 0.006"}, {"sequence": "CUUAAGGAGACCAUCUAGACGGUUACCUAA", "pre-steady-state target cleavage rate": "0.000676 ± 0.011"}, {"sequence": "CUUAAGGUCUGCAACUACUGGGUUACCUAA", "pre-steady-state target cleavage rate": "0.0166 ± 0.017"}, {"sequence": "CUUAAGGAGACCUAGUUCAGGGUUACCUAA", "pre-steady-state target cleavage rate": "0.000651 ± 0.0099"}, {"sequence": "CUUAAGGAGACGUUCUACUGCGUUACCUAA", "pre-steady-state target cleavage rate": "0.00118 ± 0.0028"}, {"sequence": "GAAUUCCUCUGGAUGUACUGGGUUACCUAA", "pre-steady-state target cleavage rate": "0.352 ± 0.045"}, {"sequence": "CUUAAGGAGACCUUGUAGUGGGUUACCUAA", "pre-steady-state target cleavage rate": "0.00039 ± 0.016"}, {"sequence": "CUUAAGGAGACCUUCUGACUGGGUUACCUAA", "pre-steady-state target cleavage rate": "0.000103 ± 0.049"}, {"sequence": "CUUUUCCUCUGGAUCUACUGAGUUACCUAA", "pre-steady-state target cleavage rate": "0.727 ± 0.048"}, {"sequence": "CUUUUCCUCUGGAUCUACUGGGUUACGUUA", "pre-steady-state target cleavage rate": "0.374 ± 0.044"}, {"sequence": "CUUAACCUGCUGGAUCUACUGGGUUACCUAA", "pre-steady-state target cleavage rate": "0.356 ± 0.036"}, {"sequence": "CUUAAGGAGACGAUCUACCGGGUUACCUAA", "pre-steady-state target cleavage rate": "0.00125 ± 0.0099"}, {"sequence": "CUUAAGGAGUGGAUCUUCUGGGAUACCUAA", "pre-steady-state target cleavage rate": "0.000223 ± 0.039"}, {"sequence": "CUUAAGGAGACCUAGUACUGGGAUACCUAA", "pre-steady-state target cleavage rate": "0.000239 ± 0.025"}, {"sequence": "CUUAAGGAGACCAUCCACUGGGUUACCUAA", "pre-steady-state target cleavage rate": "0.00203 ± 0.0086"}, {"sequence": "CUUAAGGAGUGGAUCUACUAGGGUUACCUAA", "pre-steady-state target cleavage rate": "0.000585 ± 0.015"}, {"sequence": "CUUAAGGAGACGAUCUACAGGGAUACCUAA", "pre-steady-state target cleavage rate": "0.000719 ± 0.0098"}, {"sequence": "CUUAAGGAGACCAUCUACUGGGGUUACCUAA", "pre-steady-state target cleavage rate": "0.0013 ± 0.0078"}, {"sequence": "CUUAAGGAGACCUUCUACUAGGUUACCUAA", "pre-steady-state target cleavage rate": "0.00152 ± 0.0065"}, {"sequence": "CUUAAGGAGACCAUCUAUUGGGUUACCUAA", "pre-steady-state target cleavage rate": "0.00302 ± 0.0054"}, {"sequence": "CUAUUCCUCUGGUUCUACUGGGUAACCUAA", "pre-steady-state target cleavage rate": "0.156 ± 0.033"}, {"sequence": "CAAUUCCUCUCGAUCUUCUGGGUUACCUAA", "pre-steady-state target cleavage rate": "0.737 ± 0.059"}, {"sequence": "CUUAAGGUCUGGAUCUACUGGUGUUACCUAA", "pre-steady-state target cleavage rate": "0.000159 ± 0.029"}, {"sequence": "CUUAAGGAGACCUAGAAUCUGGGUUACCUAA", "pre-steady-state target cleavage rate": "0.000556 ± 0.013"}, {"sequence": "CUAUUCCUCUGGAUCUACUGGGUUUCCUAA", "pre-steady-state target cleavage rate": "0.344 ± 0.053"}, {"sequence": "CUUAAGGAGUGGAUCUAGUGGGAUACCUAA", "pre-steady-state target cleavage rate": "0.000308 ± 0.019"}, {"sequence": "GUAUUCCUCUGGAUCUACUGGGUUACGUAA", "pre-steady-state target cleavage rate": "0.377 ± 0.057"}, {"sequence": "CUUAAGGAGACCUAGUACUGGGGUUACCUAA", "pre-steady-state target cleavage rate": "0.000418 ± 0.017"}, {"sequence": "CUUAAGGACUGGAUCUACUGGGAAUCCUAA", "pre-steady-state target cleavage rate": "0.0011 ± 0.023"}, {"sequence": "CUUAAGCUCUGGAUCUCACUGGGUUACCUAA", "pre-steady-state target cleavage rate": "0.000262 ± 0.031"}, {"sequence": "CUUAAGGAGACCUACUACUGGGUUAGCCUAA", "pre-steady-state target cleavage rate": "0.00185 ± 0.0067"}]}]}
